{
  "source": "patent US12281080B2",
  "about": "“Quinoline-based compounds and methods of inhibiting CDK8/19” (University of South Carolina, priority 2018, dated 2025)",
  "tested_on": "468 human kinases and disease relevant mutant variants",
  "experiment": "KINOMEscan scanMAX panel, whole panel",
  "format": "binding",
  "conditions": "2,000 nM",
  "data": [
    {"smiles": "CN1CCN(C(=O)c2ccc3cc(CCNc4ccnc5ccc(C#N)cc45)ccc3c2)CC1", "note": "[compound 6148, 4-((2-(6-(4-methylpiperazine-1-carbonyl)naphthalen-2-yl)ethyl)amino)quinoline-6-carbonitrile]", "values": [
      {"measurement": "S(10) kinome selectivity S-score", "setting": "(number of non-mutant kinases with % Ctrl <10)/(number of non-mutant kinases tested)", "result": 0.002},
      {"measurement": "S(35) kinome selectivity S-score", "setting": "(number of non-mutant kinases with % Ctrl <35)/(number of non-mutant kinases tested)", "result": 0.012}
    ]}
  ]
}
